HELM strings list residues between dots; [ac] is acetyl, [am] amide, other brackets name non-standard units.
Assay: peptide synthesis
Settings: conjugation step

Substance: PEPTIDE1{A.D.D.Q.N.P.W.R.A.Y.L.D.L.L.F.P.T.D.T.L.L.L.D.L.L.W.C.G}|CHEM1{[Exa-OCO-THP-S]}$PEPTIDE1,CHEM1,27:R3-1:R1$$$V2.0
- conjugation yield: 73.6%
